Results on five compounds are retold here after patent US10280241B2, “Tackifier compounds and methods of using the same” (Iowa State University Research Foundation, Inc., priority 2012, dated 2019).

The nature of this data set: Probe tack, modified ASTM 02979 standard (Instron load frame). To be noted: for Maximum tack: maximum over selected temperatures from −50° C. to 80° C., 0.1 mm film on glass slide, 5 mm type 304 stainless steel probe; for Temperature at which maximum tack was observed: selected temperatures from −50° C. to 80° C. How it is done:
Tack was measured by modifications to the […] standard. On an Instron® load frame, the tackifier to be tested was applied to a glass slide at a thickness of 0.1 mm. The slide was then clamped to a flat surface and, perpendicularly, a type 304 stainless steel probe measuring 5 mm in diameter, with a 90° polished tip was place above the slide. The probe was then lowered at a rate of 0.5 mm sec^−1 and contacted the surface at an average force of 1.5 N. The probe was then held on the surface for 1.0 sec and then raised at a rate of 0.5 mm sec^−1. Tack was measured as the maximum force required to remove the probe from the surface of the tackifier. Tg was measured by DSC.

In the case of `O=C(O)CCC(=O)OC1COC2C(OC(=O)CCC(=O)O)COC12` (stereo not shown) [3a], the Maximum tack was found to be 168 kPa and the “Temperature at which maximum tack was observed” value (“Temperature” below) stood at 25 °C.

On to `O=C(O)CCCC(=O)O[C@H]1CO[C@H]2[C@@H]1OC[C@H]2OC(=O)CCCC(=O)O` [3b], for which the Maximum tack is on record as 112 kPa and the “Temperature” value amounted to 25 °C.

`O=C(O)C=CC(=O)O[C@H]1CO[C@H]2[C@@H]1OC[C@H]2OC(=O)C=CC(=O)O` [3c]: the Maximum tack was 130 kPa and the “Temperature” value was 60 °C.

As for `O=C(O)CCC(=O)O[C@@H]1CO[C@H]2[C@@H]1OC[C@H]2OC(=O)CCC(=O)O` [5a], the Maximum tack was 121 kPa and the “Temperature” value was 25 °C.

`O=C(O)CCCC(=O)O[C@@H]1CO[C@H]2[C@@H]1OC[C@H]2OC(=O)CCCC(=O)O` [5b]: the Maximum tack was determined as 107 kPa and the “Temperature” value came out at 60 °C.
